Where “and” joins values, the source holds several entries; their conditions need not be identical. Identical values can stand only once. The campaign covered roughly 320,000 compounds. About 2,100 (0.66%) were called active. This list was built around the results that the source calls inconclusive (neither active nor inactive); the mix of calls is not that of the screen. The call rests on the fitted dose curve; in most records, active means well fitted inhibition curve with a large enough effect in the signal ratio, with a control signal flat (not every such curve was filed as active); inconclusive means small, poorly fitted or top-dose-only effect, or effect the other way, or a change in a side signal; inactive means flat fitted curve, though single readings scatter; the % refers to the signal ratio. A potency beside an inconclusive call is a rough fit, not a confirmed value.
Assay: qHTS Assay for Lipid Storage Modulators in Drosophila S3 Cells
Settings: BODIPY lipid droplet fluorescence, 18-24 h, cells fed with added oleic acid; lipid storage change, negative = inhibition: at 46.1 µM (top of the series) unless noted
Method in brief: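 Laser-scanning cytometry quantifies lipid droplet accumulation (500–530 nm total intensity; droplet/cell object ratio) in oleic acid-fed (400 uM added) Drosophila S3 cells treated with a concentration series. 20 uM Triacsin C defined 100% inhibition.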
In the case of `CCc1nc(SCC(=O)Nc2cc(C)on2)c2c(C)c(C)sc2n1`, the Potency is reported as inconclusive: 1.03 µM [activator, partial curve].
In the case of `O=C(Nc1ccc(O)cc1)c1c(O)c2c([nH]c1=O)CCCC2`, the Potency is reported as inconclusive: 3.66 µM [activator, partial curve].
For `COCCCNC(=O)/C(C#N)=C/c1cccc(NC(=O)c2ccccc2Cl)c1`, the Potency was inconclusive: 8.2 µM [falling, partial curve].
For `O=C(O)c1ccc(NS(=O)(=O)c2cccc(C(=O)Nc3ccccc3[N+](=O)[O-])c2)cc1`, the lipid storage change, negative = inhibition was inconclusive: 479%.
With `CCOc1ccc(NC(=O)C(=O)N/N=C\c2ccc(CNS(=O)(=O)c3ccccc3)o2)cc1` the Potency was inconclusive: 29.1 µM [falling, single point].
With `O=c1cc(CN2CCCCC2)nc(C2CC2)[nH]1` the lipid storage change, negative = inhibition was inconclusive: 163%.
With `COc1ccc(CNC(=O)C(c2ccncc2)N(C(=O)Cc2cccs2)c2ccc(C)cc2)cc1` (centres undefined) the lipid storage change, negative = inhibition was inconclusive: 41.3%.
In the case of `CCOc1ccc2[nH]c(=O)c(CN(CCN3CCOCC3)Cc3nnnn3C(C)(C)CC)cc2c1`, the Potency is reported as inconclusive: 32.6 µM [activator, partial curve, poor fit].
For `NS(=O)(=O)c1ccc(CCNC(=O)c2cccc(S(=O)(=O)N3CCCC3)c2)cc1`, the Potency was inconclusive: 0.291 µM [falling, partial curve, poor fit].
For `Cc1cccc(C)c1OCCNC(=O)CCC(=O)c1ccccc1`, the lipid storage change, negative = inhibition was inconclusive: -24.9%.
For `CCc1cccc(C)c1NC(=O)COC(=O)c1c2c(nc3ccccc13)/C(=C\c1cccs1)CCC2`, the Potency was inconclusive: 11.6 µM [falling, partial curve].
In the case of `CCSc1ccc(-c2ccco2)nn1`, the “lipid storage change, negative = inhibition” value is reported as inactive: 0.907%.
In the case of `Cn1c(C(=O)N2CCN(C3CCCCC3)CC2)cc2c(=O)n(C)c3ccccc3c21`, the lipid storage change, negative = inhibition is reported as inconclusive: -48.8%.
With `COc1ccccc1CNc1ncccc1[N+](=O)[O-]` the lipid storage change, negative = inhibition was inconclusive: 12.7%.
For `COc1ccc(NC(C)=O)cc1S(=O)(=O)Nc1ccc(OCc2ccccc2)cc1`, the “outcome” value was “inactive [at 46.1 µM]”.
For `O=C(Nc1cccc(Cl)c1)C1COc2ccccc2O1` (centres undefined), the lipid storage change, negative = inhibition was inconclusive: -56.7%.
In the case of `COC(=O)CN1C(=O)S/C(=C/c2ccc(N3CCCCC3)o2)C1=O`, the Potency is reported as inconclusive: 18.4 µM [falling, single point].
In the case of `COc1ccc(/C=C/c2nc3ccccc3n2Cc2ccccc2OC)cc1`, the lipid storage change, negative = inhibition is reported as inconclusive: -0.902%.
In the case of `Cc1ccccc1CS(=O)(=O)CCC(=O)NCc1ccccn1`, the “lipid storage change, negative = inhibition” value is reported as inactive: -5.48%.
For `NC(=O)C(c1ccc(F)cc1)c1ccc(C(=O)c2ccccc2)cc1` (centres undefined), the lipid storage change, negative = inhibition was inconclusive: -6%.
In the case of `O=C(/C=C/c1cccs1)NNC(=O)c1ccccc1`, the Potency is reported as inconclusive: 0.103 µM [activator, full curve].
In the case of `CCOc1ccc2[nH]c3c(=O)n(CCc4ccc(OC)cc4)cnc3c2c1`, the lipid storage change, negative = inhibition is reported as inconclusive: 26.1%.
For `COc1ccc(C(=O)Nn2c(SCc3cccc([N+](=O)[O-])c3)nc3ccccc3c2=O)cc1`, the lipid storage change, negative = inhibition was inconclusive: 7.63%.
With `O=C(O)c1c[nH]c2c(C(F)(F)F)cccc2c1=O` the lipid storage change, negative = inhibition was inconclusive: 8.93%.
For `Cc1coc2c(C)c3oc(=O)c(CCC(=O)NCCCN4CCOCC4)c(C)c3cc12`, the Potency was inconclusive: 23.1 µM [falling, single point].
In the case of `COC(C[C@H]1O[C@H]1[C@@H](O)[C@@H](C)OCc1ccccc1)OC`, the lipid storage change, negative = inhibition is reported as inconclusive: -4.07%.
In the case of `Cc1c(CC(=O)NCC(=O)NCC(=O)O)c(=O)oc2c(C)c3oc4c(c3cc12)CCCC4`, the lipid storage change, negative = inhibition is reported as inconclusive: 2.93%.
In the case of `Cc1ccc(C)c(S(=O)(=O)N2CCN(c3nc(-c4cccnc4)nc4ccccc34)CC2)c1`, the Potency is reported as inconclusive: 8.2 µM [falling, partial curve].
With `CCC(NC(=O)CN1CCN(C(=O)c2cccs2)CC1)c1ccc(C)cc1` (centres undefined) the lipid storage change, negative = inhibition was inconclusive: 11.2%.
In the case of `Cc1cc(NC(=O)CN(C)CC(=O)Nc2ccc(F)c(F)c2F)no1`, the lipid storage change, negative = inhibition is reported as inconclusive: 21.2%.
With `Cc1ccc(-c2ccc(CCC(=O)O)n2-c2cccc(C(=O)O)c2)cc1` the Potency was inconclusive: 0.731 µM [falling, single point].
For `COc1ccccc1C(=O)NCC(=O)Nc1ccc2c(c1)CCC2`, the lipid storage change, negative = inhibition was inconclusive: 0.878%.
For `O=C(Nc1ccccc1Cl)c1cc(S(=O)(=O)N2CCCC(C(=O)O)C2)ccc1F` (centres undefined), the lipid storage change, negative = inhibition was inconclusive: 31.8%.
With `COc1ccc(S(=O)(=O)N2CCN3CCCC3C2)cc1` (centres undefined) the lipid storage change, negative = inhibition was inconclusive: 31.3%.
For `O=C(Nc1ccc(OCC(=O)N2CCOCC2)cc1)c1ccccc1F`, the lipid storage change, negative = inhibition was inconclusive: 72%.
For `COc1cc(C)ccc1Oc1ncnc(N)c1[N+](=O)[O-]`, the lipid storage change, negative = inhibition was inconclusive: 12.6%.
In the case of `C=CCn1c(SCC(=O)Nc2cc(C)ccc2OC)nnc1-c1ccco1`, the lipid storage change, negative = inhibition is reported as inconclusive: 18.7%.
For `CCSc1nnc([C@H](Cc2ccccc2)NC(=O)OC(C)(C)C)o1`, the lipid storage change, negative = inhibition was inconclusive: 27.5%.
With `COc1ccc(NC(=O)CNS(=O)(=O)c2ccc(Cl)cc2)cc1` the lipid storage change, negative = inhibition was inconclusive: -19.8%.
With `CCNC(=S)N1CCN(CC)CC1` the lipid storage change, negative = inhibition was inconclusive: -11.7%.
For `C=C(NC(C)=O)c1c(F)cccc1F`, the Potency was inconclusive: 3.66 µM [activator, single point].
In the case of `O=c1c2cc(Br)ccc2nc(-c2ccc([N+](=O)[O-])cc2)n1O`, the lipid storage change, negative = inhibition is reported as inconclusive: -26.9%.
With `CCN1C(=NCC(C)C)N[C@@H](c2cccc(F)c2)C(C(=O)OC)=C1C` the lipid storage change, negative = inhibition was inconclusive: -68.4% and inconclusive: -31.6%.
With `O=C(c1ccc(CS(=O)(=O)c2c(Cl)cccc2Cl)o1)N1CCCC1` the Potency was inconclusive: 1.46 µM [activator, partial curve, poor fit].
For `O=C(Cc1ccc(F)cc1)N/N=C/c1ccccn1`, the lipid storage change, negative = inhibition was inconclusive: 20.8%.
For `CSc1ncc(C(=O)Nc2cccc(S(N)(=O)=O)c2)n1-c1ccccc1`, the lipid storage change, negative = inhibition was inconclusive: 21.5%.
In the case of `O=C(O)CC(CC(=O)O)c1ccsc1`, the lipid storage change, negative = inhibition is reported as inconclusive: 13.4%.
For `Cc1ccc(CNC(=O)CSc2nccn(-c3ccc(C)c(F)c3)c2=O)cc1`, the Potency was active: 14.6 µM.
For `C/C(=N\NC(=O)c1c(C)nc2ccccn12)c1ccc(C(C)(C)C)cc1`, the Potency was inconclusive: 0.731 µM [activator, full curve].
On the % scale 0 is the no-effect control and ±100 the full control effect; potency means the concentration at half of the fitted maximal effect.
